Experimental data: PubChem BioAssay AID1259308 (NCATS, 2017)
The deposit covers about 59,000 reagents; this is a random part of them. Of all reagents, about 1,510 (2.6%) were called active. 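Calls use total luciferase alone and ignore viability, so some active siRNAs may act by altering cell number.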 Reagents against one gene are numbered here. Further read-outs or replicates are left out here.

- Purpose: 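Knock-downs that increase output of a recombinant reporter protein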 (primary screen)
- System: human HEK293 embryonic kidney cells stably expressing firefly luciferase (HEK-CMV-Luc2-Hygro)
- Knock-down reagent: single siRNA against human genes, 0.8 pmol siRNA per well
- Timing: 72 h
- Measured: 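Reporter luminescence and viable-cell signal on separate replicate plates, given as percent of non-targeting control and median/MAD z-scores, plus per-cell luciferase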
- Scale: total luciferase, z-score: higher = more reporter protein produced
- Rule for the call: 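Active when the median/MAD z-score for overall luciferase is greater than 3; a gene was taken forward for validation with new siRNAs if at least two of its three siRNAs passed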
- Meaning of the calls: active = raised luciferase; inactive = no rise

total luciferase, z-score, by gene and reagent
PRR34 (PRR34 long non-coding RNA): #1 3.27 active; #2 4.59 active; #3 -2.15 inactive
BBOF1 (basal body orientation factor 1): #1 0.078 inactive; #2 0.655 inactive; #3 2.53 inactive
RAB3B (RAB3B, member RAS oncogene family): #1 0.0425 inactive; #2 0.914 inactive; #3 1.17 inactive
KRT6B (keratin 6B): #1 -0.18 inactive; #2 1.84 inactive; #3 -0.903 inactive
ZNF385C (zinc finger protein 385C): #1 -1.1 inactive; #2 -0.463 inactive; #3 1.5 inactive
RP1L1 (RP1 like 1): #1 -1.19 inactive; #2 0.452 inactive; #3 -0.52 inactive
LOXL3 (lysyl oxidase like 3): #1 -0.224 inactive; #2 -0.49 inactive; #3 0.705 inactive
METTL17 (methyltransferase like 17): #1 0.0163 inactive; #2 1.74 inactive; #3 0.456 inactive
BRIP1 (BRCA1 interacting DNA helicase 1): #1 -1.17 inactive; #2 1.04 inactive; #3 0.911 inactive
FECH (ferrochelatase): #1 0.453 inactive; #2 0.0961 inactive; #3 1.44 inactive
CFLAR (CASP8 and FADD like apoptosis regulator): #1 -1.29 inactive; #2 -0.589 inactive; #3 -0.8 inactive

In a second layout: 10 of the entries above
| gene | siRNA no. | total luciferase, z-score | call |
| --- | --- | --- | --- |
| RP1L1 (RP1 like 1) | 1 | -1.19 | inactive |
| RP1L1 (RP1 like 1) | 2 | 0.452 | inactive |
| RP1L1 (RP1 like 1) | 3 | -0.52 | inactive |
| LOXL3 (lysyl oxidase like 3) | 1 | -0.224 | inactive |
| LOXL3 (lysyl oxidase like 3) | 2 | -0.49 | inactive |
| LOXL3 (lysyl oxidase like 3) | 3 | 0.705 | inactive |
| METTL17 (methyltransferase like 17) | 1 | 0.0163 | inactive |
| METTL17 (methyltransferase like 17) | 2 | 1.74 | inactive |
| METTL17 (methyltransferase like 17) | 3 | 0.456 | inactive |
| BRIP1 (BRCA1 interacting DNA helicase 1) | 1 | -1.17 | inactive |

The results go on:
total luciferase, z-score, by gene and reagent
FPR3 (formyl peptide receptor 3): #1 -0.559 inactive; #2 0.104 inactive; #3 -1.35 inactive
ZFYVE26 (zinc finger FYVE-type containing 26): #1 0.444 inactive; #2 0.964 inactive; #3 -1.04 inactive
COX4I2 (cytochrome c oxidase subunit 4I2): #1 1.21 inactive; #2 -0.168 inactive; #3 -0.82 inactive
IMPG2 (interphotoreceptor matrix proteoglycan 2): #1 -0.43 inactive; #2 0.376 inactive; #3 0.106 inactive
KLRC3 (killer cell lectin like receptor C3): #1 0.00972 inactive; #2 -0.508 inactive; #3 -0.543 inactive
KRT15 (keratin 15): #1 -0.648 inactive; #2 2.72 inactive; #3 0.0328 inactive
RAX (retina and anterior neural fold homeobox): #1 -1.08 inactive; #2 -0.531 inactive; #3 0.151 inactive
CEP95 (centrosomal protein 95): #1 0.956 inactive; #2 3.39 active; #3 -0.711 inactive
